Results on three molecules are retold here after PMC12359834.

Protein sequences, listed by entry. Tags and fused reporters are not part of them.
UniProt P14598: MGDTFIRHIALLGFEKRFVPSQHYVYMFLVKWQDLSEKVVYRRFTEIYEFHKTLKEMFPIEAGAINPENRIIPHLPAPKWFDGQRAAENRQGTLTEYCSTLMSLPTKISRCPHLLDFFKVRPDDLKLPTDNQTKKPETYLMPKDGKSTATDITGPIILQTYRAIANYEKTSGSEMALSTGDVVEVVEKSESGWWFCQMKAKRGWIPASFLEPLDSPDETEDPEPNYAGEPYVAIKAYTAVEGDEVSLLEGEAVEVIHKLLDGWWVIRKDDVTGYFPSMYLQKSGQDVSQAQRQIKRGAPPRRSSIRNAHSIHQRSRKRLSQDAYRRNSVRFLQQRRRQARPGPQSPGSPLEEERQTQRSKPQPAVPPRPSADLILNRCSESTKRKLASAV

The target in experiment [1] is p47phox (human (endogenous in HAEC)) (UniProt P14598). Description: co-IP; HAEC infected with lentivirus with empty vector, AIP1-F or a truncate, untreated or TNFalpha (10 ng/ml for 15 min); lysates immunoprecipitated with anti-p47phox, Western blot with anti-NOX2.
For experiment [2] the target is unchanged. Description: co-IP; endogenous proteins in HAEC transfected with control siRNA or AIP1 siRNA, untreated or TNFalpha (10 ng/ml) for 15 min; co-immunoprecipitation followed by Western blot.

These are yes or no findings as the source states them, for the method shown. In cells and extracts the contact can be indirect. Some results given as binding are weak or reduced against the parent protein; the word gives no strength.

B1: NOX2 (protein, UniProt P04839 1-570)
chain: MGNWAVNEGLSIFVILVWLGLNVFLFVWYYRVYDIPPKFFYTRKLLGSALALARAPAACLNFNCMLILLPVCRNLLSFLRGSSACCSTRVRRQLDRNLTFHKMVAWMIALHSAIHTIAHLFNVEWCVNARVNNSDPYSVALSELGDRQNESYLNFARKRIKNPEGGLYLAVTLLAGITGVVITLCLILIITSSTKTIRRSYFEVFWYTHHLFVIFFIGLAIHGAERIVRGQTAESLAVHNITVCEQKISEWGKIKECPIPQFAGNPPMTWKWIVGPMFLYLCERLVRFWRSQQKVVITKVVTHPFKTIELQMKKKGFKMEVGQYIFVKCPKVSKLEWHPFTLTSAPEEDFFSIHIRIVGDWTEGLFNACGCDKQEFQDAWKLPKIAVDGPFGTASEDVFSYEVVMLVGAGIGVTPFASILKSVWYKYCNNATNLKLKKIYFYWLCRDTHAFEWFADLLQLLESQMQERNNAGFLSYNIYLTGWDESQANHFAVHHDEEKDVITGLKQKTLYGRPNWDNEFKTIASQHPNTRIGVFLCGPEALAETLSKQSISNSESGPRGVHFIFNKENF
In the case of B1, the binding entry in experiment [1] is given as “binds”.

B2: AIP1 (protein, UniProt Q5VWQ8 1-1189)
chain: MSAGGSARKSTGRSSYYYRLLRRPRLQRQRSRSRSRTRPARESPQERPGSRRSLPGSLSEKSPSMEPSAATPFRVTGFLSRRLKGSIKRTKSQPKLDRNHSFRHILPGFRSAAAAAADNERSHLMPRLKESRSHESLLSPSSAVEALDLSMEEEVVIKPVHSSILGQDYCFEVTTSSGSKCFSCRSAAERDKWMENLRRAVHPNKDNSRRVEHILKLWVIEAKDLPAKKKYLCELCLDDVLYARTTGKLKTDNVFWGEHFEFHNLPPLRTVTVHLYRETDKKKKKERNSYLGLVSLPAASVAGRQFVEKWYPVVTPNPKGGKGPGPMIRIKARYQTITILPMEMYKEFAEHITNHYLGLCAALEPILSAKTKEEMASALVHILQSTGKVKDFLTDLMMSEVDRCGDNEHLIFRENTLATKAIEEYLKLVGQKYLQDALGEFIKALYESDENCEVDPSKCSAADLPEHQGNLKMCCELAFCKIINSYCVFPRELKEVFASWRQECSSRGRPDISERLISASLFLRFLCPAIMSPSLFNLLQEYPDDRTARTLTLIAKVTQNLANFAKFGSKEEYMSFMNQFLEHEWTNMQRFLLEISNPETLSNTAGFEGYIDLGRELSSLHSLLWEAVSQLEQSIVSKLGPLPRILRDVHTALSTPGSGQLPGTNDLASTPGSGSSSISAGLQKMVIENDLSGLIDFTRLPSPTPENKDLFFVTRSSGVQPSPARSSSYSEANEPDLQMANGGKSLSMVDLQDARTLDGEAGSPAGPDVLPTDGQAAAAQLVAGWPARATPVNLAGLATVRRAGQTPTTPGTSEGAPGRPQLLAPLSFQNPVYQMAAGLPLSPRGLGDSGSEGHSSLSSHSNSEELAAAAKLGSFSTAAEELARRPGELARRQMSLTEKGGQPTVPRQNSAGPQRRIDQPPPPPPPPPPAPRGRTPPNLLSTLQYPRPSSGTLASASPDWVGPSTRLRQQSSSSKGDSPELKPRAVHKQGPSPVSPNALDRTAAWLLTMNAQLLEDEGLGPDPPHRDRLRSKDELSQAEKDLAVLQDKLRISTKKLEEYETLFKCQEETTQKLVLEYQARLEEGEERLRRQQEDKDIQMKGIISRLMSVEEELKKDHAEMQAAVDSKQKIIDAQEKRIASLDAANARLMSALTQLKERYSMQARNGISPTNPTKLQITENGEFRNSSNC
For the molecule B2, the binding result in experiment [2] is recorded as “binds”.

B3: AIP1-F (protein, UniProt Q5VWQ8 1-1189)
chain: MSAGGSARKSTGRSSYYYRLLRRPRLQRQRSRSRSRTRPARESPQERPGSRRSLPGSLSEKSPSMEPSAATPFRVTGFLSRRLKGSIKRTKSQPKLDRNHSFRHILPGFRSAAAAAADNERSHLMPRLKESRSHESLLSPSSAVEALDLSMEEEVVIKPVHSSILGQDYCFEVTTSSGSKCFSCRSAAERDKWMENLRRAVHPNKDNSRRVEHILKLWVIEAKDLPAKKKYLCELCLDDVLYARTTGKLKTDNVFWGEHFEFHNLPPLRTVTVHLYRETDKKKKKERNSYLGLVSLPAASVAGRQFVEKWYPVVTPNPKGGKGPGPMIRIKARYQTITILPMEMYKEFAEHITNHYLGLCAALEPILSAKTKEEMASALVHILQSTGKVKDFLTDLMMSEVDRCGDNEHLIFRENTLATKAIEEYLKLVGQKYLQDALGEFIKALYESDENCEVDPSKCSAADLPEHQGNLKMCCELAFCKIINSYCVFPRELKEVFASWRQECSSRGRPDISERLISASLFLRFLCPAIMSPSLFNLLQEYPDDRTARTLTLIAKVTQNLANFAKFGSKEEYMSFMNQFLEHEWTNMQRFLLEISNPETLSNTAGFEGYIDLGRELSSLHSLLWEAVSQLEQSIVSKLGPLPRILRDVHTALSTPGSGQLPGTNDLASTPGSGSSSISAGLQKMVIENDLSGLIDFTRLPSPTPENKDLFFVTRSSGVQPSPARSSSYSEANEPDLQMANGGKSLSMVDLQDARTLDGEAGSPAGPDVLPTDGQAAAAQLVAGWPARATPVNLAGLATVRRAGQTPTTPGTSEGAPGRPQLLAPLSFQNPVYQMAAGLPLSPRGLGDSGSEGHSSLSSHSNSEELAAAAKLGSFSTAAEELARRPGELARRQMSLTEKGGQPTVPRQNSAGPQRRIDQPPPPPPPPPPAPRGRTPPNLLSTLQYPRPSSGTLASASPDWVGPSTRLRQQSSSSKGDSPELKPRAVHKQGPSPVSPNALDRTAAWLLTMNAQLLEDEGLGPDPPHRDRLRSKDELSQAEKDLAVLQDKLRISTKKLEEYETLFKCQEETTQKLVLEYQARLEEGEERLRRQQEDKDIQMKGIISRLMSVEEELKKDHAEMQAAVDSKQKIIDAQEKRIASLDAANARLMSALTQLKERYSMQARNGISPTNPTKLQITENGEFRNSSNC
With B3, the binding result in experiment [1] was “binds”.
